According to US12116357B2, “Heteroaryl-triazole and heteroaryl-tetrazole compounds as pesticides” (Bayer Aktiengesellschaft, priority 2018, dated 2024):
At least one read-out could not be matched to a standard name with certainty.

System: Diabrotica balteata
Assay: Diabrotica balteata spray test
Assay type: in vivo
Settings: 80 μg/well, after 7 days

CCOC(=O)NCCN(C(=O)c1cc(Cl)cc(C(F)(F)F)c1)C(C)c1ncnn1-c1ncccn1 (stereo not shown) [Example I-042]
efficacy (seedling growth): 100%
